Measured data: PubChem BioAssay AID1224826 (NIAID, 2016)
Shown is an unselected part of about 17,000 reagents tested. About 1,110 of all reagents (6.6%) were called active. 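Active means lowered or raised reporter signal; replicate intensities are raw and not normalised per plate.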 A number with no mark means an inactive call. Further read-outs or replicates are left out here.

Screen: 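Regulators of Tlr4 signalling leading to Tnf-alpha expression in macrophages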 (primary screen)
Cell system: RAW264.7 G9 macrophages from mouse bearing reporters for p65 (GFP) and the Tnf promoter (mCherry)
Reagents: siRNA pool against mouse genes, 100 nM
Timing: 16 h of LPS stimulation, after 2 days of siRNA transfection
Treatment: bacterial lipopolysaccharide (Salmonella minnesota R595), 10 ng/ml
Read-out: 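Nuclear mCherry signal of the Tnf promoter reporter measured by imaging after background removal, scaled to each plate median and turned into robust z-scores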
Reading the numbers: Tnf reporter robust z-score: higher = stronger Tnf promoter reporter signal after LPS
Active means: 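Called active when robust z-score is at most -1.3, matching the median of the Tlr4 knock-down control, or over 3; control wells and wells with under 50 cells never active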
Meaning of the calls: active = Tnf reporter clearly lowered or raised; inactive = no clear change in Tnf reporter

After knock-down of P2rx1 (purinergic receptor P2X, ligand-gated ion channel, 1) [SID315468366], the record shows Tnf reporter robust z-score 0.38; fewer than 50 cells in well enough cells in well.
For Tom1 (target of myb1 trafficking protein) [SID315469790], the entry reads Tnf reporter robust z-score -0.55; fewer than 50 cells in well enough cells in well.
After knock-down of Pitpnm1 (phosphatidylinositol transfer protein, membrane-associated 1) [SID315468530], the record shows Tnf reporter robust z-score 1.44; fewer than 50 cells in well enough cells in well.
Dgka (diacylglycerol kinase, alpha) [SID315466261] gave Tnf reporter robust z-score -0.27; fewer than 50 cells in well enough cells in well.
Depletion of Usf2 (upstream transcription factor 2) [SID315469955] came out at: Tnf reporter robust z-score -0.41; fewer than 50 cells in well enough cells in well.
Tmprss11b (transmembrane protease, serine 11B) [SID315481184] scored fewer than 50 cells in well fewer than 50 cells per well; well left out of calls.
Ccdc80 (coiled-coil domain containing 80) [SID315473297] showed Tnf reporter robust z-score 0.69; fewer than 50 cells in well enough cells in well.
Silencing of Akr1c6 (aldo-keto reductase family 1, member C6) [SID315475859] came out at: Tnf reporter robust z-score -0.33; fewer than 50 cells in well enough cells in well.
After knock-down of Sgsh (N-sulfoglucosamine sulfohydrolase (sulfamidase)) [SID315470516], the record shows Tnf reporter robust z-score 0.63; fewer than 50 cells in well enough cells in well.

3 entries from above, set out differently.
{"target": "P2rx1 (purinergic receptor P2X, ligand-gated ion channel, 1)", "PubChem SID": "SID315468366", "Tnf reporter robust z-score": 0.38, "fewer than 50 cells in well": "enough cells in well"}
{"target": "Tom1 (target of myb1 trafficking protein)", "PubChem SID": "SID315469790", "Tnf reporter robust z-score": -0.55, "fewer than 50 cells in well": "enough cells in well"}
{"target": "Pitpnm1 (phosphatidylinositol transfer protein, membrane-associated 1)", "PubChem SID": "SID315468530", "Tnf reporter robust z-score": 1.44, "fewer than 50 cells in well": "enough cells in well"}

The listing continues.
With knock-down of Naxe (NAD(P)HX epimerase) [SID315479883], the record shows Tnf reporter robust z-score 0.95; fewer than 50 cells in well enough cells in well.
Agps (alkylglycerone phosphate synthase) [SID315478620] scored Tnf reporter robust z-score 1.03; fewer than 50 cells in well enough cells in well.
For Tmc3 (transmembrane channel-like gene family 3) [SID315479083], the values are Tnf reporter robust z-score 2.51; fewer than 50 cells in well enough cells in well.
After knock-down of Ptma (prothymosin alpha) [SID315468787], the record shows Tnf reporter robust z-score -0.17; fewer than 50 cells in well enough cells in well.
Against Setx (senataxin) [SID315480843], the entry reads Tnf reporter robust z-score -0.18; fewer than 50 cells in well enough cells in well.
Mapk8ip1 (mitogen-activated protein kinase 8 interacting protein 1) [SID315468697] scored Tnf reporter robust z-score 0.26; fewer than 50 cells in well enough cells in well.
Knock-down of Ppm1m (protein phosphatase 1M) [SID315473303] came out at: fewer than 50 cells in well fewer than 50 cells per well; well left out of calls.
Silencing of Apex2 (apurinic/apyrimidinic endonuclease 2) [SID315475488] came out at: Tnf reporter robust z-score 1.65; fewer than 50 cells in well enough cells in well.
Against Tiam1 (T cell lymphoma invasion and metastasis 1) [SID315469717], the entry reads Tnf reporter robust z-score -0.19; fewer than 50 cells in well enough cells in well.
Against Gpr180 (G protein-coupled receptor 180) [SID315471898], the entry reads Tnf reporter robust z-score -0.55; fewer than 50 cells in well enough cells in well.
Knock-down of Or51ai2 (olfactory receptor family 51 subfamily AI member 2) [SID315480715] gave: fewer than 50 cells in well fewer than 50 cells per well; well left out of calls.
Irs4 (insulin receptor substrate 4) [SID315467496] gave Tnf reporter robust z-score 0.75; fewer than 50 cells in well enough cells in well.
